Laboratory results: PubChem BioAssay AID1259308 (NCATS, 2017)

Purpose: 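Knock-downs that increase output of a recombinant reporter protein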 (primary screen)
Cells: human HEK293 embryonic kidney cells stably expressing firefly luciferase (HEK-CMV-Luc2-Hygro)
Reagent: single siRNA against human genes, 0.8 pmol siRNA per well
Time to read-out: 72 h
Read-out: 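Reporter luminescence and viable-cell signal on separate replicate plates, given as percent of non-targeting control and median/MAD z-scores, plus per-cell luciferase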
Direction: total luciferase, z-score and total luciferase, % of control: higher = more reporter protein produced; luciferase per cell, z-score: higher = more reporter output per viable cell; viable cells, % of control: higher = more viable cells
Rule for the call: 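An siRNA counts as active if its total luciferase robust z-score exceeds 3; genes with two or more such siRNAs out of three were retested with fresh siRNAs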
Calls: active = raised luciferase; inactive = no rise
In all, the deposit lists about 59,000 reagents; below is an unselected part. In the full data, about 1,510 (2.6%) got an active call. 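Calls use total luciferase alone and ignore viability, so some active siRNAs may act by altering cell number.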 Unmarked entries are inactive. The numbers tell different reagents against one gene apart. Reagent sequences are not shown.

no.	gene	reagent no.	total luciferase, z-score	total luciferase, % of control	luciferase per cell, z-score	viable cells, % of control
1	TNFRSF10D (TNF receptor superfamily member 10d)	1	0.00451	82	-0.584	107
2	TNFRSF10D (TNF receptor superfamily member 10d)	2	2.25	127	1.38	98.4
3	TNFRSF10D (TNF receptor superfamily member 10d)	3	-0.0469	81	-0.371	99.8
4	RXRG (retinoid X receptor gamma)	1	0.328	88.4	0.186	94.1
5	RXRG (retinoid X receptor gamma)	2	-1.4	54	-0.665	71.9
6	RXRG (retinoid X receptor gamma)	3	0.31	88	-0.384	109
7	ADGRB3 (adhesion G protein-coupled receptor B3)	1	0.995	102	1.28	81.2
8	ADGRB3 (adhesion G protein-coupled receptor B3)	2	-1.07	60.6	-1.03	88.8
9	ADGRB3 (adhesion G protein-coupled receptor B3)	3	-0.463	72.7	-0.403	90.3
10	CEP44 (centrosomal protein 44)	1	-2.52	31.7	-3.62	91.9
11	CEP44 (centrosomal protein 44)	2	-0.186	78.2	-0.559	101
12	CEP44 (centrosomal protein 44)	3	-0.53	71.3	-0.877	100
13	BTK (Bruton tyrosine kinase)	1	0.223	86.3	-0.185	101
14	BTK (Bruton tyrosine kinase)	2	-0.354	74.8	-0.414	93.3
15	BTK (Bruton tyrosine kinase)	3	-0.257	76.8	-0.993	111
16	PRKRA	1	1.1	104	0.371	105
17	PRKRA	2	0.882	99.4	-0.325	121
18	PRKRA	3	-0.159	78.7	-0.753	107
19	PCDH20 (protocadherin 20)	1	-1.52	51.6	-0.939	73.8
20	PCDH20 (protocadherin 20)	2	3.52 (active)	152	3.8	62.4
21	PCDH20 (protocadherin 20)	3	-0.624	69.5	-0.545	89.6
22	SLCO1C1	1	-2.33	35.6	-3.33	95.6
23	SLCO1C1	2	-0.361	74.7	-0.955	107
24	SLCO1C1	3	1.46	111	0.764	101
25	POLR2J4 (RNA polymerase II subunit J4 (pseudogene))	1	-0.341	75.1	0.157	80.5
26	POLR2J4 (RNA polymerase II subunit J4 (pseudogene))	2	-1.18	58.3	-0.0317	65.7
27	POLR2J4 (RNA polymerase II subunit J4 (pseudogene))	3	3.76 (active)	157	3.89	62.8
28	ARID4A (AT-rich interaction domain 4A)	1	0.00671	82	0.142	88.3
29	ARID4A (AT-rich interaction domain 4A)	2	-0.957	62.9	-1.15	95
30	ARID4A (AT-rich interaction domain 4A)	3	0.318	88.2	0.688	82.2
31	PAX6 (paired box 6)	1	0.243	86.7	0.0422	95.8
32	PAX6 (paired box 6)	2	0.29	87.6	0.387	88.5
33	PAX6 (paired box 6)	3	-1.49	52.3	-1.54	87.7
34	ZNF134 (zinc finger protein 134)	1	0.895	99.7	0.767	91
35	ZNF134 (zinc finger protein 134)	2	2.74	136	2.94	70.2
36	ZNF134 (zinc finger protein 134)	3	-0.296	76	0.0267	84.3
37	CPEB4 (cytoplasmic polyadenylation element binding protein 4)	1	1.49	112	0.854	99.6
38	CPEB4 (cytoplasmic polyadenylation element binding protein 4)	2	0.188	85.6	0.948	74.5
39	CPEB4 (cytoplasmic polyadenylation element binding protein 4)	3	0.147	84.8	0.312	87.3

Part of the list above in another layout:
ARID4A (AT-rich interaction domain 4A) #2
- total luciferase, z-score: -0.957
- total luciferase, % of control: 62.9
- luciferase per cell, z-score: -1.15
- viable cells, % of control: 95

ARID4A (AT-rich interaction domain 4A) #3
- total luciferase, z-score: 0.318
- total luciferase, % of control: 88.2
- luciferase per cell, z-score: 0.688
- viable cells, % of control: 82.2

PAX6 (paired box 6) #1
- total luciferase, z-score: 0.243
- total luciferase, % of control: 86.7
- luciferase per cell, z-score: 0.0422
- viable cells, % of control: 95.8

PAX6 (paired box 6) #2
- total luciferase, z-score: 0.29
- total luciferase, % of control: 87.6
- luciferase per cell, z-score: 0.387
- viable cells, % of control: 88.5

PAX6 (paired box 6) #3
- total luciferase, z-score: -1.49
- total luciferase, % of control: 52.3
- luciferase per cell, z-score: -1.54
- viable cells, % of control: 87.7
